In patent US11299503B2, “Compound, coating composition comprising the same, organic light emitting device using the same and method for manufacturing the same” (LG Chem, Ltd., priority 2018, dated 2022):

Assay: Organic light emitting device with the compound as light emitting dopant: driving voltage and efficiency
Conditions: current density of 10 mA/cm^2; for Driving Voltage: compound as dopant of light emitting layer (8% concentration, host Compound B); for Current Efficiency / Light Emission Wavelength / Power Efficiency: compound as dopant of light emitting layer

SMILES | Driving Voltage | Current Efficiency | Light Emission Wavelength | Power Efficiency
c1ccc([Si](c2ccccc2)(c2ccccc2)c2cccc(-c3ccccc3N(c3cccc([Si](c4ccccc4)(c4ccccc4)c4ccccc4)c3)c3cc4c5ccccc5c(N(c5cccc([Si](c6ccccc6)(c6ccccc6)c6ccccc6)c5)c5ccccc5-c5cccc([Si](c6ccccc6)(c6ccccc6)c6ccccc6)c5)cc4c4ccccc34)c2)cc1 [BD12] | 4.37 V | 4.21 cd/A | 450 nm | 2.75 lm/W
c1ccc([Si](c2ccccc2)(c2ccccc2)c2cccc(-c3ccccc3N(c3ccc(-c4cc5c6ccccc6c(-c6ccc(N(c7cccc([Si](c8ccccc8)(c8ccccc8)c8ccccc8)c7)c7ccccc7-c7cccc([Si](c8ccccc8)(c8ccccc8)c8ccccc8)c7)cc6)cc5c5ccccc45)cc3)c3cccc([Si](c4ccccc4)(c4ccccc4)c4ccccc4)c3)c2)cc1 [BD24] | 5.5 V | 4.46 cd/A | 442 nm | 2.86 lm/W
CC(C)c1ccc([Si](c2ccc(C(C)C)cc2)(c2ccc(C(C)C)cc2)c2ccc(N(c3cccc(-c4cccc([Si](c5ccc(C(C)C)cc5)(c5ccc(C(C)C)cc5)c5ccc(C(C)C)cc5)c4)c3)c3cc4c5ccccc5c(N(c5ccc([Si](c6ccc(C(C)C)cc6)(c6ccc(C(C)C)cc6)c6ccc(C(C)C)cc6)cc5)c5cccc(-c6cccc([Si](c7ccc(C(C)C)cc7)(c7ccc(C(C)C)cc7)c7ccc(C(C)C)cc7)c6)c5)cc4c4ccccc34)cc2)cc1 [BD30] | 4.26 V | 4.24 cd/A | 451 nm | 2.77 lm/W
CC(C)c1ccc([Si](c2ccc(C(C)C)cc2)(c2ccc(C(C)C)cc2)c2ccc(N(c3ccc(-c4cc5c6ccccc6c(-c6ccc(N(c7ccc([Si](c8ccc(C(C)C)cc8)(c8ccc(C(C)C)cc8)c8ccc(C(C)C)cc8)cc7)c7cccc(-c8cccc([Si](c9ccc(C(C)C)cc9)(c9ccc(C(C)C)cc9)c9ccc(C(C)C)cc9)c8)c7)cc6)cc5c5ccccc45)cc3)c3cccc(-c4cccc([Si](c5ccc(C(C)C)cc5)(c5ccc(C(C)C)cc5)c5ccc(C(C)C)cc5)c4)c3)cc2)cc1 [BD38] | 5.43 V | 4.56 cd/A | 443 nm | 2.89 lm/W
c1ccc(-c2ccc(N(c3ccccc3)c3cc4c5ccccc5c(N(c5ccccc5)c5ccc(-c6ccccc6)cc5)cc4c4ccccc34)cc2)cc1 [Compound C, reference compound] | 6.23 V | 3.09 cd/A | 450 nm | 1.45 lm/W
